According to publication doi:10.1101/2025.08.31.673341:
Results are given in words; binding and its absence hold for the method and conditions named. Binding seen in cells or lysates may run through a third protein. Some binding calls cover weakened binding; strength is not graded here. For some of these results: Tags and fused reporters may be left off the sequences shown.

Chains of the proteins cited; added tags and fusions are not shown.
UniProt Q8RWR1: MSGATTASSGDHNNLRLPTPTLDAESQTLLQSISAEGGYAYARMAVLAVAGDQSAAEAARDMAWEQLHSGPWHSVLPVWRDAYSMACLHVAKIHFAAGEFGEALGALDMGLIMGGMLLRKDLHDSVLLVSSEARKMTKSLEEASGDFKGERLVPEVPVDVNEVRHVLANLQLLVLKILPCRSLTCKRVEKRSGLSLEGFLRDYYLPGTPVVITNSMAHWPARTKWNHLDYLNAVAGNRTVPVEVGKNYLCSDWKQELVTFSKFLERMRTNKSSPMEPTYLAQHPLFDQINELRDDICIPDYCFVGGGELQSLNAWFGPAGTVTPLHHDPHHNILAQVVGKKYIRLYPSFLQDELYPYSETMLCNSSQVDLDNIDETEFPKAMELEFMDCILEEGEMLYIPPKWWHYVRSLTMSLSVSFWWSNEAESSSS
UniProt O80742: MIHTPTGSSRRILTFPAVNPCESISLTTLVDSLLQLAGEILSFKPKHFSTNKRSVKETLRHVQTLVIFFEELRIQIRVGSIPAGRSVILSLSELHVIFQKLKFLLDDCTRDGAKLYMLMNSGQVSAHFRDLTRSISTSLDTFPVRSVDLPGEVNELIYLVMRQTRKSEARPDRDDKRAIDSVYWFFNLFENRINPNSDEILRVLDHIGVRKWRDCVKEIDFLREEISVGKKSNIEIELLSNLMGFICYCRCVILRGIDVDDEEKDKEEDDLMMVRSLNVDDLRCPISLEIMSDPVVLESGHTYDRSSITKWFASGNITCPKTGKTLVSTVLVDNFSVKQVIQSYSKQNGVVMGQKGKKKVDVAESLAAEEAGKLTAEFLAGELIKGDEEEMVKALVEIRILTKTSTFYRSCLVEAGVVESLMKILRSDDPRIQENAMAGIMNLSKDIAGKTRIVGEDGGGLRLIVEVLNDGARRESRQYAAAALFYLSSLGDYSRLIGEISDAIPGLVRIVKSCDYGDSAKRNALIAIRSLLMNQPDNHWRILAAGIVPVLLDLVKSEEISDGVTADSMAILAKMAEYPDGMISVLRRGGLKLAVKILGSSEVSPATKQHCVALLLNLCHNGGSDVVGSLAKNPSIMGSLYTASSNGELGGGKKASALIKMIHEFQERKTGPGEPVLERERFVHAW

T1: YFP-PUB18 (full-length PUB18 fused to YFP) (Arabidopsis) (UniProt Q9XIJ5)
T1 sequence: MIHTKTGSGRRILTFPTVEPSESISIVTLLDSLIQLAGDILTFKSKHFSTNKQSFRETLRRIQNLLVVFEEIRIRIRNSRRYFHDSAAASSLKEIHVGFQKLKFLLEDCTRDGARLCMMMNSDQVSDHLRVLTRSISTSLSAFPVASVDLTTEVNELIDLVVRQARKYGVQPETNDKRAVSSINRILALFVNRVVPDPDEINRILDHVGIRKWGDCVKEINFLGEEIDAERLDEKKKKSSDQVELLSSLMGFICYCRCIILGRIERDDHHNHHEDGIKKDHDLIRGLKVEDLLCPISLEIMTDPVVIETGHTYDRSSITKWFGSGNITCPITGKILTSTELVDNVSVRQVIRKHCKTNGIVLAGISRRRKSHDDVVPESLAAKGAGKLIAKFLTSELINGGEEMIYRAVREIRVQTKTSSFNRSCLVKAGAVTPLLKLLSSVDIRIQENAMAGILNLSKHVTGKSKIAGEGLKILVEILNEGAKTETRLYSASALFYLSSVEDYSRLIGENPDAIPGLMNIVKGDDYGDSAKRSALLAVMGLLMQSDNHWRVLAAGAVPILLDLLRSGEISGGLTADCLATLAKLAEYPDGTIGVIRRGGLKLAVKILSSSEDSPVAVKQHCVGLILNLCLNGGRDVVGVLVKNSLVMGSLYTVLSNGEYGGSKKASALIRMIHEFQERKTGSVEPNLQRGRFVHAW

T2: CK2 fused to the N-terminal part of YFP (YFPn) (Arabidopsis) (UniProt Q08466)
T2 sequence: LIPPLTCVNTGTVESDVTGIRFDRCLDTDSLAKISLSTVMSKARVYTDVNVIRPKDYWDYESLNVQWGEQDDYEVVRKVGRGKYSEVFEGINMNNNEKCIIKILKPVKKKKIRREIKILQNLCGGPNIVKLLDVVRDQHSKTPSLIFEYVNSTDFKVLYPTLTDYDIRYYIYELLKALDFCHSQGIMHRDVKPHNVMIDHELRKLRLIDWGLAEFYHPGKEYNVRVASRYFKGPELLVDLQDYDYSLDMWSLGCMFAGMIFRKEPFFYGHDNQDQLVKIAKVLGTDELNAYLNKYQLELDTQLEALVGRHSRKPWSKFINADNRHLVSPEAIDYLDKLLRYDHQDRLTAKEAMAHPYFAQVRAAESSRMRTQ

T3: LHY fused to the N-terminal part of YFP (YFPn) (Arabidopsis) (UniProt Q6R0H1)
T3 sequence: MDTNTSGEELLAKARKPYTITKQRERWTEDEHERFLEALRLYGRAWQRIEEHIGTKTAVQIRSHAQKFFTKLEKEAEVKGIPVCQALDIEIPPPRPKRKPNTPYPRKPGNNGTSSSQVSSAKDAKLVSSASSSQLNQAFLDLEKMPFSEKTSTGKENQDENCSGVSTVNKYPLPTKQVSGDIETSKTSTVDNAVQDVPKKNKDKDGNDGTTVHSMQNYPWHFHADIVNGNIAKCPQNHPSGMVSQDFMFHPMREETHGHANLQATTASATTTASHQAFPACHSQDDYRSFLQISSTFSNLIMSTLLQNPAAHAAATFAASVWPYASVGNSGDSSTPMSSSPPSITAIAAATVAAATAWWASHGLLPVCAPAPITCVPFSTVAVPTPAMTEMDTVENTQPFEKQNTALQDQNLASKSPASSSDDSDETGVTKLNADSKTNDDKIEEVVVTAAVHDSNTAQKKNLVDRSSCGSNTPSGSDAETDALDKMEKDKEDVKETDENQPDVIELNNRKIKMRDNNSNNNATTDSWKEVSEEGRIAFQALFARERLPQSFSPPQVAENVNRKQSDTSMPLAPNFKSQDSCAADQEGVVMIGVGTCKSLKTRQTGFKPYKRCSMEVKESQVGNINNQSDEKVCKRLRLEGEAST

T4: FLAG-LHY (Arabidopsis) (UniProt Q6R0H1)
T4 sequence: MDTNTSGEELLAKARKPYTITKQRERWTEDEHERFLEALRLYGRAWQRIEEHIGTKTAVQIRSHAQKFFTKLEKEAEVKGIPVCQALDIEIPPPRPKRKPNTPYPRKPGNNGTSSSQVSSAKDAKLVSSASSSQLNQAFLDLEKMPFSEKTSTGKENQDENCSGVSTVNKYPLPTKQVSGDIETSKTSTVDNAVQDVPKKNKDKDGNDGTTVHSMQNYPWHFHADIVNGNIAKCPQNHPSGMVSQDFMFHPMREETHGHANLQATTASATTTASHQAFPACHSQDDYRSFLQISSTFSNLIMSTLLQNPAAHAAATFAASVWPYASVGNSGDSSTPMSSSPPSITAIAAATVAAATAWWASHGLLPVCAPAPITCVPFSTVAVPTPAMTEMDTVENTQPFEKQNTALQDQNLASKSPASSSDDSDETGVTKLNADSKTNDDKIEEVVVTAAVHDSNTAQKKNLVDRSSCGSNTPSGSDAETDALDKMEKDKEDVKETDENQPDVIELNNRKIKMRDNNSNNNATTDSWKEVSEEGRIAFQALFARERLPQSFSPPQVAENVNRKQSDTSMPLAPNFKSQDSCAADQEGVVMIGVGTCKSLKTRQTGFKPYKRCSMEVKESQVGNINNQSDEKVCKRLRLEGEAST


How the values were obtained:
[1] = target: T1, YFP-PUB18 (full-length PUB18 fused to YFP) (Arabidopsis); assay: co-IP
[2] = target: T2, CK2 fused to the N-terminal part of YFP (YFPn) (Arabidopsis); assay: split reporter
[3] = target: T3, LHY fused to the N-terminal part of YFP (YFPn) (Arabidopsis); assay: split reporter
[4] = target: JMJD5 fused to the N-terminal part of YFP (YFPn) (Arabidopsis) (UniProt Q8RWR1); assay: split reporter
[5] = target: T4, FLAG-LHY (Arabidopsis); assay: co-IP

| Molecule | binding [1] | binding [5] | binding [2] | binding [3] | binding [4] |
| --- | --- | --- | --- | --- | --- |
| full-length PUB18 (PUB18FL) fused to the C-terminal part of YFP (YFPc) (from UniProt Q9XIJ5 1-697) |  |  | no binding | binds | binds |
| full-length PUB19 fused to the C-terminal part of YFP (YFPc) (from UniProt O80742 1-686) |  |  |  | no binding | no binding |

Second part, led by results:

| binding [1] | binding [5] | Molecule | binding [2] | binding [3] | binding [4] |
| --- | --- | --- | --- | --- | --- |
| binds |  | FLAG-JMJD5 (from UniProt Q8RWR1 1-429) |  |  |  |
|  | binds | YFP-PUB18 (full-length PUB18 fused to YFP) (protein, UniProt Q9XIJ5 1-697) MIHTKTGSGRRILTFPTVEPSESISIVTLLDSLIQLAGDILTFKSKHFSTNKQSFRETLRRIQNLLVVFEEIRIRIRNSRRYFHDSAAASSLKEIHVGFQKLKFLLEDCTRDGARLCMMMNSDQVSDHLRVLTRSISTSLSAFPVASVDLTTEVNELIDLVVRQARKYGVQPETNDKRAVSSINRILALFVNRVVPDPDEINRILDHVGIRKWGDCVKEINFLGEEIDAERLDEKKKKSSDQVELLSSLMGFICYCRCIILGRIERDDHHNHHEDGIKKDHDLIRGLKVEDLLCPISLEIMTDPVVIETGHTYDRSSITKWFGSGNITCPITGKILTSTELVDNVSVRQVIRKHCKTNGIVLAGISRRRKSHDDVVPESLAAKGAGKLIAKFLTSELINGGEEMIYRAVREIRVQTKTSSFNRSCLVKAGAVTPLLKLLSSVDIRIQENAMAGILNLSKHVTGKSKIAGEGLKILVEILNEGAKTETRLYSASALFYLSSVEDYSRLIGENPDAIPGLMNIVKGDDYGDSAKRSALLAVMGLLMQSDNHWRVLAAGAVPILLDLLRSGEISGGLTADCLATLAKLAEYPDGTIGVIRRGGLKLAVKILSSSEDSPVAVKQHCVGLILNLCLNGGRDVVGVLVKNSLVMGSLYTVLSNGEYGGSKKASALIRMIHEFQERKTGSVEPNLQRGRFVHAW |  |  |  |
